Data taken from patent publication US6426335.
pKd: −log10 of the molar value. For some of these results: The exact form of at least one protein or probe is not confirmed.

Chains of the proteins cited; added tags and fusions are not shown. A line that says so, or that is headed by a name, gives the form on record, which may keep a tag or linker.
VEGF, one chain, as listed by the source: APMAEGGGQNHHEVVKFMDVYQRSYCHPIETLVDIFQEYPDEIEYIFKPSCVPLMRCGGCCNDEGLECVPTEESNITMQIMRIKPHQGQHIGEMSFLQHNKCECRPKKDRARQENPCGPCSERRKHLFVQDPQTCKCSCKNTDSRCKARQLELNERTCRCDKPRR

Assays:
VEGF = experiment: inhibition of the protein; conditions: 2'-F at 1,6-7,10,14,16-18,20,22,24-26, 2'-OMe at 2-3,8-9,11-13,15,19,21,23,27, 3'-3' idT at 28, purified recombinant protein
VEGF165 (Homo sapiens) [1] = experiment: filter binding; conditions: 2'-F pyrimidines; 3'-3' dT cap (N22) [22 (3'-3' dT cap); all C/U 2'-F]; 37C; purified recombinant protein; letters built from the parent sequence and the stated change; variant of t2
VEGF165 (Homo sapiens) [2] = experiment: EMSA; conditions: as NX213, plus dialkyl glycerol (1,2-di-O-octadecyl-sn-glycerol) lipid conjugate; competition EMSA, comparable to NX213; PBS 0.01% HSA 37C; VEGF isoform not stated; purified recombinant protein; variant of NX213

“CGGAAUCAGUGAAUGCUUAUACAUCCG [NX31838-20K PEG]” was tested, and the “functional effect of the aptamer” value (VEGF; 20K PEG, blocks VEGF-induced vascular leakage in guinea pig skin down to 100 nM, lost at 30 nM) was “active”.

ACCGAUGGAAUUUUUGGACGCT [t2e] was tested, and the pKd (VEGF165 (Homo sapiens) [1]) was < 7.00.

With “CGGAAUCAGUGAAUGCUUAUACAUCCG [NX31838-PL liposome]” the “functional effect of the aptamer” value (VEGF; phospholipid, in liposome, blocks VEGF-induced vascular leakage in guinea pig skin, reduced activity at 100 nM) was “active”.

“TTTTACCCUGAUGGUAGACGCCGGGGUGTTTTT [NX278]”: binds (VEGF165 (Homo sapiens) [2]).
